Test results taken from PMC12873737.

Amino acid sequences for entries named in this document (tags omitted).
UniProt Q9R1A8: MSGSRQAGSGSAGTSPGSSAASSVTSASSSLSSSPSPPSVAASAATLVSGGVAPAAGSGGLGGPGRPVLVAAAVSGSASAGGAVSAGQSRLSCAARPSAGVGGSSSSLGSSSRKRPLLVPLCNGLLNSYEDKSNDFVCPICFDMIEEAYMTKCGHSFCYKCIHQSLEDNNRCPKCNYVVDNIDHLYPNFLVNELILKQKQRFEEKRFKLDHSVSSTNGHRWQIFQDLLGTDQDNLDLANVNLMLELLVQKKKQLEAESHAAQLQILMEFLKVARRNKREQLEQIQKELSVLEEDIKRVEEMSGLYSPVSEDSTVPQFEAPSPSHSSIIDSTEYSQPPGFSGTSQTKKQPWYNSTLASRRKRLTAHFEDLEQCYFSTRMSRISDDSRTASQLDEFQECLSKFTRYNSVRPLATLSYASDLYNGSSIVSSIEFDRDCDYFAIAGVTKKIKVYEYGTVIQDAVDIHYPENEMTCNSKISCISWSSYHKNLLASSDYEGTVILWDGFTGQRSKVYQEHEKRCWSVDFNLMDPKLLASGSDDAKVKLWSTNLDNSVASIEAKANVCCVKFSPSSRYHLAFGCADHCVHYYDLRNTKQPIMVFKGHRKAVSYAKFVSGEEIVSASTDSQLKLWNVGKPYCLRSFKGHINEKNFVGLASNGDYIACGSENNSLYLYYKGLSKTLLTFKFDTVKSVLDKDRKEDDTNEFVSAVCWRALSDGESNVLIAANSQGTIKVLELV

Biological target: T1, HA-Rhbdf2 (rhomboid 5 homolog 2), expressed in AML12 cells (UniProt Q80WQ6)
T1 sequence: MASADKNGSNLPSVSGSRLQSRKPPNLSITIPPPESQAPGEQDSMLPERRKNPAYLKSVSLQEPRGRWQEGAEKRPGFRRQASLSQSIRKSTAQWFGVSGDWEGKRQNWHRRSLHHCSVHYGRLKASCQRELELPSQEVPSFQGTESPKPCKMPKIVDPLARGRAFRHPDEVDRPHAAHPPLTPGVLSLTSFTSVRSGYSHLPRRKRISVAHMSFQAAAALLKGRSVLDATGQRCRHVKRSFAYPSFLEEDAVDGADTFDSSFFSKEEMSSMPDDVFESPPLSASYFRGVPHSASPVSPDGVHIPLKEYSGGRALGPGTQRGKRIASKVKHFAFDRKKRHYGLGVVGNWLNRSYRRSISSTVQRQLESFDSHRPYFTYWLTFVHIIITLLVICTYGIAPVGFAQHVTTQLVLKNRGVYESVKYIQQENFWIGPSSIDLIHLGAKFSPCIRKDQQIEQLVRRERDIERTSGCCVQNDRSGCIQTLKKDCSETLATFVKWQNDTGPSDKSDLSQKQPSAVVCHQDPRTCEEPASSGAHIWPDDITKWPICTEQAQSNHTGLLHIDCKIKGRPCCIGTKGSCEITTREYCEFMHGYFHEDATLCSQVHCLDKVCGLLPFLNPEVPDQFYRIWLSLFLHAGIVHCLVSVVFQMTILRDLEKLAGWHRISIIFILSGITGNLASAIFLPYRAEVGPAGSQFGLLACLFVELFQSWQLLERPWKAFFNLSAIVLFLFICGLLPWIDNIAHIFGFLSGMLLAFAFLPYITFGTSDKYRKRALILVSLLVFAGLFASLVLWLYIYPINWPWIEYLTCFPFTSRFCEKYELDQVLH
Experiment: affinity purification with mass spectrometry; immunoprecipitation of Rhbdf2-interacting proteins from Rhbdf2-overexpressing and control AML12 stable cell lines after H/R; SDS-PAGE (10% gel), silver staining, LC-MS/MS

binding: binds
Substance: Constitutive photomorphogenic 1 (Cop1), endogenous in AML12 cells (from UniProt Q9R1A8 1-733) (enzyme)

Results are given in words; binding and its absence hold for the method and conditions named. In cells and extracts the contact can be indirect. A yes stands for co-enrichment or nearness to the bait. Other partners may have been found. Tags and fused reporters may be left off the sequences shown.
